This note sets out measurements from PubChem BioAssay AID588856 (National Center for Advancing Translational Sciences (NCATS), 2011).

This list holds what a sample rich in hits left over. Activity calls are given as the source filed them. Calls follow the shape of the dose curve; as a rule, active = well fitted cell-killing curve with a large enough effect; inactive = no such curve, though single readings can be large or run the other way.

The experiment can be described thus: qHTS for Inhibitors of TGF-b: Cytotox Counterscreen. Particulars: HepG2 CAGA-GFP viability, ATP luminescence, 18 h; at 46.1 µM (top of the series). The source says:
TGF-b is a main component in the TGF-b signaling pathway which plays diverse roles in cellular and development pathways. TGF-b is mediated by transcription factors called "Smads". Although the Smad-dependent pathway is the primary canonical TGF-b signaling mode, TGF-b1 can also activate alternative signaling pathways, including those involving MAPK (ERK, JNK and p38). This interaction may mediate or enhance Smad-dependent responses, or can exert Smad-independent effects. The complexity of this signaling cascade allows the TGF-b superfamily to perform unique, overlapping or redundant functions. […] We aim to identify Smad3-small molecule antagonists using a quantitative high throughput screening (qHTS) approach. […]
Suspensions of trypsinized HEPG2 CAGA-GFP cells were dispensed into white, tissue culture-treated, solid 1536-well plates at 5uL/well (1000 cells/well final concentration) in DMEM medium supplemented with 1% FBS. […] Two uL of CellTiter Glo (Promega), a luminescence-based viability reagent, was dispensed, followed by a 10 minute room temperature incubation. The plates were then measured on a PerkinElmer ViewLux plate reader for luminescence (clear filter) using a 5 second exposure. The %Activity was determined from the corrected luminescence values. […]
Concentration-response curves were fitted to the signals arising from the resulting luminescence. […]
`CNC1CCc2cc(OC)c(OC)c(OC)c2-c2ccc(SC)c(=O)cc21` (stereo unspecified): the activity change, negative = cytotoxicity was inactive: -21.8%.
